These results are taken from PMC7486386.

Amino acid sequences for entries named in this document (tags omitted).
UniProt P16220: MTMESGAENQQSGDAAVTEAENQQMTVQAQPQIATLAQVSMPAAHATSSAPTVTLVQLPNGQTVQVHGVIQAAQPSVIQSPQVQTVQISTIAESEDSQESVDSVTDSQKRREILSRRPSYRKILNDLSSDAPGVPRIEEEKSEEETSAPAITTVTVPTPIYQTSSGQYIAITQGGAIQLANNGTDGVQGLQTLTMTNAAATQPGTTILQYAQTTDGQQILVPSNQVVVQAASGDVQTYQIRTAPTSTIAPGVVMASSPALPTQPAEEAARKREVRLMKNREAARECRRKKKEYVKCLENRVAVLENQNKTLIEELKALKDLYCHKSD
UniProt Q92793: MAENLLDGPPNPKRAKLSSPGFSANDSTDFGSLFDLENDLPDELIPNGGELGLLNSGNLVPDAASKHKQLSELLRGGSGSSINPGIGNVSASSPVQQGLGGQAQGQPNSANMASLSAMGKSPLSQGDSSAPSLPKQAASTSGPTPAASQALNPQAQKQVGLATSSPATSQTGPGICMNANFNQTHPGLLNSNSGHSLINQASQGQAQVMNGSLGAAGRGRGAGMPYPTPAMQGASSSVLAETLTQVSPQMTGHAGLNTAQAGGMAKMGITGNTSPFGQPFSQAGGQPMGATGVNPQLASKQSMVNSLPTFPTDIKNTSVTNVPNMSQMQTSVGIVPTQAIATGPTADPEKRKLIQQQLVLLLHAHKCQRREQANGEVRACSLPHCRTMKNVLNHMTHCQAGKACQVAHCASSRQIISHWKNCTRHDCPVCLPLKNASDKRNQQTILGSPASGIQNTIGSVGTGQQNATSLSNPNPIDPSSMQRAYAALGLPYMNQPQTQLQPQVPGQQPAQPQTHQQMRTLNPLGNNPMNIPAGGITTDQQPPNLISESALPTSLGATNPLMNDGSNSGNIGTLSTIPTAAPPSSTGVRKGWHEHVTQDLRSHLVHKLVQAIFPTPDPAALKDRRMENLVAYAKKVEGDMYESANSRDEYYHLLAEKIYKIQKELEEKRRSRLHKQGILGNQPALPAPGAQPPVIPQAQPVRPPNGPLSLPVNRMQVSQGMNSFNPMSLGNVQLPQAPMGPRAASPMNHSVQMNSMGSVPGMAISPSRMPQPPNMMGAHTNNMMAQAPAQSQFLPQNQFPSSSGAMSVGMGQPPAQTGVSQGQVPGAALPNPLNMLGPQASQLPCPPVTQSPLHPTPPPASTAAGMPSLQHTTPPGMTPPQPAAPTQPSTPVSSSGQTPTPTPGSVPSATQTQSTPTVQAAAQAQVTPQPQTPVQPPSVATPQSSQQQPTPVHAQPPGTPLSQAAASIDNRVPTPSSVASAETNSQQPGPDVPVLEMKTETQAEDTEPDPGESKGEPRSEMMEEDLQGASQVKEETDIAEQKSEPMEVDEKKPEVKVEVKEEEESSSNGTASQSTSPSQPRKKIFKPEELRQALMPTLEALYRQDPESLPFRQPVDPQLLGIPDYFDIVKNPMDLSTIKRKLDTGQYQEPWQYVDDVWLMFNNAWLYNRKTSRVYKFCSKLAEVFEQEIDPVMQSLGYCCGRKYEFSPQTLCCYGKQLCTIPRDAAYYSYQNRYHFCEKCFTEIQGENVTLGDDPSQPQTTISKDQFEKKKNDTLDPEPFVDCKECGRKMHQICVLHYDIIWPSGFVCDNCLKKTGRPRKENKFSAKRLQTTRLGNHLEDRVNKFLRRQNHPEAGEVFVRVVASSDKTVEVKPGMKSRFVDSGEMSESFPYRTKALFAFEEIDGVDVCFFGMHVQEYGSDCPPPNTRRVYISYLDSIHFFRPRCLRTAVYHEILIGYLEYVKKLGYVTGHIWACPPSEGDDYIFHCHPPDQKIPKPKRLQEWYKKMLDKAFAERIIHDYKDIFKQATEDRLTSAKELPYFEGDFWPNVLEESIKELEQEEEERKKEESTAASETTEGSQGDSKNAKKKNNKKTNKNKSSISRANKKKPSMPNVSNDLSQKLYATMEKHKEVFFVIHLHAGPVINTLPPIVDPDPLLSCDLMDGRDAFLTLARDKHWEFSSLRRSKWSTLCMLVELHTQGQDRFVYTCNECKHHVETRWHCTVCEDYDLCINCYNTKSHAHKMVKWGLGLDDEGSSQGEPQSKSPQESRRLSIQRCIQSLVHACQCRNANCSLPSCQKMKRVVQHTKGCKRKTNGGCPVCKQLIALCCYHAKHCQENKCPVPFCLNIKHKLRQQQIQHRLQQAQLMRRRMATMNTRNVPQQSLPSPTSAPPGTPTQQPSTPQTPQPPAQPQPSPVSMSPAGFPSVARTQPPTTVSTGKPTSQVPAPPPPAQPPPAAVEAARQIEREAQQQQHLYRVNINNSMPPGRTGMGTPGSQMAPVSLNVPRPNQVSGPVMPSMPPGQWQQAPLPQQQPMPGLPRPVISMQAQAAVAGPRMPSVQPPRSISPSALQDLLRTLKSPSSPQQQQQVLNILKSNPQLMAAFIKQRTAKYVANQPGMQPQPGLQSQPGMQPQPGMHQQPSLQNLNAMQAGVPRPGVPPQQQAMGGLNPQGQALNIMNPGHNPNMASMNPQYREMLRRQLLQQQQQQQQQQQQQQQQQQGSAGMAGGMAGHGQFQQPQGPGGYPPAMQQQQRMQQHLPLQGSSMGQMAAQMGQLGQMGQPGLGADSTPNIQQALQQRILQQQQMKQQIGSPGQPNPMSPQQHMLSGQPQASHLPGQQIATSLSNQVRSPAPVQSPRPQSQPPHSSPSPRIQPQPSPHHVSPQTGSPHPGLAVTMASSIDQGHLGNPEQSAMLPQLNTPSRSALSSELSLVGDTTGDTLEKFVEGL

These are yes or no findings as the source states them, for the method shown. Binding seen in cells or lysates may run through a third protein. Some results given as binding are weak or reduced against the parent protein; the word gives no strength.

The target of this test is CREB (UniProt P16220). Description: co-IP; HepG2 cells treated with 3 uM A-485 (with or without 8-Br-cAMP); lysates incubated with indicated antibodies for 2 h, then with protein A/G-agarose beads overnight at 4 C; western blot.

“CREB-binding protein (from UniProt Q92793 1-2442)”: the binding entry is listed as “binds”.

B1: TORC2 (protein, UniProt Q53ET0 1-693)
chain: MATSGANGPGSATASASNPRKFSEKIALQKQRQAEETAAFEEVMMDIGSTRLQAQKLRLAYTRSSHYGGSLPNVNQIGSGLAEFQSPLHSPLDSSRSTRHHGLVERVQRDPRRMVSPLRRYTRHIDSSPYSPAYLSPPPESSWRRTMAWGNFPAEKGQLFRLPSALNRTSSDSALHTSVMNPSPQDTYPGPTPPSILPSRRGGILDGEMDPKVPAIEENLLDDKHLLKPWDAKKLSSSSSRPRSCEVPGINIFPSPDQPANVPVLPPAMNTGGSLPDLTNLHFPPPLPTPLDPEETAYPSLSGGNSTSNLTHTMTHLGISRGMGLGPGYDAPGLHSPLSHPSLQSSLSNPNLQASLSSPQPQLQGSHSHPSLPASSLARHVLPTTSLGHPSLSAPALSSSSSSSSTSSPVLGAPSYPASTPGASPHHRRVPLSPLSLLAGPADARRSQQQLPKQFSPTMSPTLSSITQGVPLDTSKLSTDQRLPPYPYSSPSLVLPTQPHTPKSLQQPGLPSQSCSVQSSGGQPPGRQSHYGTPYPPGPSGHGQQSYHRPMSDFNLGNLEQFSMESPSASLVLDPPGFSEGPGFLGGEGPMGGPQDPHTFNHQNLTHCSRHGSGPNIILTGDSSPGFSKEIAAALAGVPGFEVSAAGLELGLGLEDELRMEPLGLEGLNMLSDPCALLPDPAVEESFRSDRLQ
B1: the binding entry is “binds”.
